Reference: publication PMC6522504
Results are given in words; binding and its absence hold for the method and conditions named. Binding seen in cells or lysates may run through a third protein. Some results given as binding are weak or reduced against the parent protein; the word gives no strength.

Chains of the proteins cited; added tags and fusions are not shown. Lines headed by an entry give the natural chain unless they say otherwise; changes in a name come on top.
UniProt Q7JW27: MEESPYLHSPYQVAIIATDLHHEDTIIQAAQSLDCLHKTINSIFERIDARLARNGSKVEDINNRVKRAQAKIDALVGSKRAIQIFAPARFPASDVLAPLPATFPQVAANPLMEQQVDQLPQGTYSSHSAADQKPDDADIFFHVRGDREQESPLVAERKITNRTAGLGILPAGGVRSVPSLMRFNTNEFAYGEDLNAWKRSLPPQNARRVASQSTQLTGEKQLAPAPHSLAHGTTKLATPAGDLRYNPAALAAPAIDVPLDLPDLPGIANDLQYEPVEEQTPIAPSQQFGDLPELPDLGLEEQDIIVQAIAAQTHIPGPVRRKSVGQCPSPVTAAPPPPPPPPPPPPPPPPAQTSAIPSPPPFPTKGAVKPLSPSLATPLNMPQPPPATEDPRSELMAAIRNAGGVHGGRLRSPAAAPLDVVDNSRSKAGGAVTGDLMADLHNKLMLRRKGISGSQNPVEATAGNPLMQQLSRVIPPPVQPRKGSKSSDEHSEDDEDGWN

T1: CCDC53 (Drosophila (endogenous in S2 cells)) (UniProt Q9VLT8)
T1 sequence: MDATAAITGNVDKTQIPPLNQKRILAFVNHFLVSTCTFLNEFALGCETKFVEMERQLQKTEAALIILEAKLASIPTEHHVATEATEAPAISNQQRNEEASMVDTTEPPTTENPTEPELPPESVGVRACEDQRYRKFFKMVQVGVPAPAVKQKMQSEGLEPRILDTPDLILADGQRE

B1: Btk29A (enzyme, UniProt P08630 1-786)
chain: MMGTKHRNSHVNGSIKSSSSLRSSSKSFQAKMDLMSERLYDVVKSGSMVKRAQNKKRFTPVNYKHRWFELTKRTFSYFDVENVERRRERGRIHLKGVRLVEEATVSGEGGDPFAPDGYPFQVGYCEISASANSHQLENGNGGGSGVGIEGQQSGRAVPQYTLYVIANSEKERSEWIRAIRQVCEDSNTPKSYRYHPGLWSGKKWSCCKGLSRTTFGCRAAAHWREANNNPSNGSSPAQNSTRSISPNSSTTNSQFSLQHNSSGSLGGGVGGGLGGGGSLGLGGGGGGGGSCTPTSLQPQSSLTTFKQSPTLLNGNGTLLDANMPGGIPTPGTPNSKAKDNSHFVKLVVALYPFKAIEGGDLSLEKNAEYEVIDDSQEHWWKVKDALGNVGYIPSNYVKPKALLGLERYEWYVGDMSRQRAESLLKQGDKEGCFVVRKSSTKGLYTLSLHTKVPQSHVKHYHIKQNARCEYYLSEKHCCETIPDLINYHRHNSGGLACRLKSSPCDRPVPPTAGLSHDKWEIHPMELMLMEELGSGQFGVVRRGKWRGSIDTAVKMMKEGTMSEDDFIEEAKVMTKLQHPNLVQLYGVCSKHRPIYIVTEYMKHGSLLNYLRRHEKTLIGNMGLLLDMCIQVSKGMTYLERHNYIHRDLAARNCLVGSENVVKVADFGLARYVLDDQYTSSGGTKFPIKWAPPEVLNYTRFSSKSDVWAYGVLMWEIFTCGKMPYGRLKNTEVVERVQRGIILEKPKSCAKEIYDVMKLCWSHGPEERPAFRVLMDQLALVAQTLTD
B2: strumpellin (protein, UniProt Q9VUY8 1-1191)
chain: MSFLDDNNACGQNLLNIVSVGNSIIAEILRLKDYVPSIYRLDNKADKAKYGELILDFSYFKIAEDHERRIEQSPELTELDDEARAQLPLITRFYLAFQSIHHYASDLQQYIEELNTGYYIQQTLETVLQEEEGRQLLCESLYLFGVILLMVDFHIPGDVRERLLIAYYRYSGGDATPSGDESNIHDVCLLLRSTGYVHPSIAAKVLGLGGKQAGARAASLVVPRYPEAYFSRFRFDENFVDLVVARLRCDDIYNQLNLYPHPAHRSTALSTQAAMLYVCLYFCPQVLHSQGSQMREIVDKFFCDNWTISVYMGMTVNLVDAWLDFKAARSAIENVISPPAIKALCQQQKEQLGKITQKTQEIVREGVLNDNFVLEHANKIIHLMRQSNVLLRWFCLHTSREVFIFAHTATLTGQVQKCVLHELQFNRNTLYNLLLNCSQMELSVREFLAEIQQTKEERWTKSREEAMQRLNELSEAFAGSRPLSKIEQNPQLQQWFGEVAGRLQKLELSRPQKSGRLIIQVMQALDDVQEYHNLHSNMLVKQQLQETRDMLNQMAQLINLKEDIEIHIQMITDFSYAWHLLQFDFTPPMQEHIKRQPQAVIGIRAVFLKLASTLEVPLMRINQARSEDLVSVSNYYSTELANFLRRVLQIVPETMFSILAKIIYLLTNVIKEFPTKVEKERLKDYAQFEERAKVAQLTNSIAVFTKGILMMKTTLVGVIELDPKQLLEDGIRKELVNHLANAYNLGLIFTPEKGKTPVQLLQQKLQALAKTIEGYRRSFEYIEDYLRVQGLRILLEESQRIINYNVEKECNAFLRNKVQEFQSEHQSQIIPIPNFPPLLGDPSNNFIGRLAHEILRCTDPKQTIFLDLKSTWYEKKAPHQEVLAGSGFFEILREALAPAGMVGLERLYAHMLADELKRNLERLQRNLTSDRMWVDTLAALTRELEARDFPTPEVSKQPLKYYQAYTQRWLKVWPTLLDWVLCIGQKQLLRREIAGELSFSSKCDAKLLENTADTLNKALLLELSLSKDLCDEKGVVMLTELQETLLYTGNFEPLEQVFLITKNTHNMALFMFLFTIAHLGRMQHSTITDCLLPKSAKDNIDNVPFIVGLVTILQQFHKNVKMLYISYMSQYVVTVSEAQLLDKEILGPEVVTALHFLLAFIRIARLPLGVLEQRIPNIILSEYEYLSTLLK
B3: CCDC53 (protein, UniProt Q9VLT8 1-176)
chain: MDATAAITGNVDKTQIPPLNQKRILAFVNHFLVSTCTFLNEFALGCETKFVEMERQLQKTEAALIILEAKLASIPTEHHVATEATEAPAISNQQRNEEASMVDTTEPPTTENPTEPELPPESVGVRACEDQRYRKFFKMVQVGVPAPAVKQKMQSEGLEPRILDTPDLILADGQRE

Tests used:
[1] = biological target: T1, CCDC53 (Drosophila (endogenous in S2 cells)); assay: co-IP; lysates of transfected S2 cells; IP with anti-CCDC53 antibody; 40 min at room temperature; immunoblot for the HA-tagged Wash variants
[2] = biological target: WASH (Wiskott–Aldrich syndrome protein and SCAR homologue) (Drosophila (endogenous in embryos)) (UniProt Q7JW27); assay: co-IP; lysates of 12-20 h AEL Drosophila embryos (wild type; for the WASH IP also 69B>Btk29A^WT and 69B>Btk29A^KD); anti-Btk29A or anti-WASH antibody or IgG control for 4 h, Protein G sepharose 1 h at 4 °C; washes with 200 mM NaCl; immunoblot
[3] = biological target: HA-tagged Wash (Drosophila) (UniProt Q7JW27); assay: co-IP; lysates of transfected S2 cells; IP of the HA-tagged Wash variant with anti-HA; 40 min at room temperature; immunoblot for strumpellin and CCDC53
[4] = biological target: HA-Wash^Y273D (Drosophila) (UniProt Q7JW27); assay: as above

Molecule | binding [1] | binding [2] | binding [3] | binding [4]
HA-tagged Wash (from UniProt Q7JW27 1-499) | binds | – | – | –
HA-Wash^Y273D (from UniProt Q7JW27 1-499) | binds | – | – | –
B1 | – | binds | – | –
B2 | – | – | binds | binds
B3 | – | – | binds | binds
